What all share (experiment): log2 fold change, soluble protein after heating vs DMSO (PISA); higher = thermal stabilisation; K562 cells, 10 uM, 30 min; active = over 0.2 and 3.5 SD of the protein, either way, in both replicates (recomputed)
Compound in assay [1]: Cc1cccc(CC(=O)N2CCc3c2ccc(-c2cn(C)c4ncnc(N)c24)c3F)n1
The method in brief: (§1)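 Soluble protein was defined as the supernatant after 21,000xg for 90 min. It came from K562 cells at 2×10^6 cells/mL given 10 μM compound for 30 min, heated in aliquots for 3 min across 48°C-58°C, pooled, and extracted in PBS with 0.5% NP-40 at 4°C, and was quantified by TMTpro 16plex LC-MS/MS with equalised channel sums. Thermal stability against control samples, from duplicates, is reported as log2 fold change.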

Sequences of proteins named here, by UniProt entry; tags and fusion partners are left off. A change or cut given only in a name is not applied to a line headed by its entry.
UniProt O95715: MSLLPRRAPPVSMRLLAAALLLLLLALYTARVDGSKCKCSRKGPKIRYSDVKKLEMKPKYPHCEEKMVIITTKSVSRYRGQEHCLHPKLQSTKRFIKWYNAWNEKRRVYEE
UniProt Q96PD2: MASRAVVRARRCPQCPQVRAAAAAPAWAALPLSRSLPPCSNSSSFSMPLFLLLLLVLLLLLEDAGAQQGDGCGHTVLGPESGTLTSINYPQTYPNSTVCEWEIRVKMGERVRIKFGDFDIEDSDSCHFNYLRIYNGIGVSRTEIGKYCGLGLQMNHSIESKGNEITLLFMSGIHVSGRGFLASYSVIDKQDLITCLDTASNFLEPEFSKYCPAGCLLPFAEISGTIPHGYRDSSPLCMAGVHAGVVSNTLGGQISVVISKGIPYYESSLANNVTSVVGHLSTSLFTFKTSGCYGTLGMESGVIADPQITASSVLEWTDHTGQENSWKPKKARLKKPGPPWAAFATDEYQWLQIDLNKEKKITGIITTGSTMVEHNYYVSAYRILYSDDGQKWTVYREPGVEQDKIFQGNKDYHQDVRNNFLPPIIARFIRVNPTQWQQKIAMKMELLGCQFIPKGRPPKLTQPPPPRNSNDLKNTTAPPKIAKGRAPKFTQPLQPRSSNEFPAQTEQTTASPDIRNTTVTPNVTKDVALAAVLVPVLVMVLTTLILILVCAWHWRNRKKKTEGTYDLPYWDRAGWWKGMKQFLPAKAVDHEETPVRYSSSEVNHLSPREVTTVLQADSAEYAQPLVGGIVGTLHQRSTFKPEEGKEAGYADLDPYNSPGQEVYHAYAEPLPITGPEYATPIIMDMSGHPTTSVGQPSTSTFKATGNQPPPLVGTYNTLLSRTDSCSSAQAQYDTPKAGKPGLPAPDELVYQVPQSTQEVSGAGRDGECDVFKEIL
UniProt Q9BWK5: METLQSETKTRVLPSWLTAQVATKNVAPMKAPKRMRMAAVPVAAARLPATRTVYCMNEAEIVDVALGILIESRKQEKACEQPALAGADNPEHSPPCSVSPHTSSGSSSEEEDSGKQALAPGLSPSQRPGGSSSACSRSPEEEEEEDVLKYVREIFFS
UniProt O60931: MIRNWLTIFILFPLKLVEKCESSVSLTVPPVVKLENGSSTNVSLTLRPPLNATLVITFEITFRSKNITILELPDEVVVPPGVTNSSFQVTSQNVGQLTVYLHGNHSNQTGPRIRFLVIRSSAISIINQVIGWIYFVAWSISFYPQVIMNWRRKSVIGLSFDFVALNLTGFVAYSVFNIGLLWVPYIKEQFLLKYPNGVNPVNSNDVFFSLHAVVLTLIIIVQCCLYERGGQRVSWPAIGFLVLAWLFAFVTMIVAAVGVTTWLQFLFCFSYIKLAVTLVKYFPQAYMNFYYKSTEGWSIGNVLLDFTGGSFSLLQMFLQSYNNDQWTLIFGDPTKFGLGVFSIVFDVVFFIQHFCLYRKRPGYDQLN
UniProt Q9HCG8: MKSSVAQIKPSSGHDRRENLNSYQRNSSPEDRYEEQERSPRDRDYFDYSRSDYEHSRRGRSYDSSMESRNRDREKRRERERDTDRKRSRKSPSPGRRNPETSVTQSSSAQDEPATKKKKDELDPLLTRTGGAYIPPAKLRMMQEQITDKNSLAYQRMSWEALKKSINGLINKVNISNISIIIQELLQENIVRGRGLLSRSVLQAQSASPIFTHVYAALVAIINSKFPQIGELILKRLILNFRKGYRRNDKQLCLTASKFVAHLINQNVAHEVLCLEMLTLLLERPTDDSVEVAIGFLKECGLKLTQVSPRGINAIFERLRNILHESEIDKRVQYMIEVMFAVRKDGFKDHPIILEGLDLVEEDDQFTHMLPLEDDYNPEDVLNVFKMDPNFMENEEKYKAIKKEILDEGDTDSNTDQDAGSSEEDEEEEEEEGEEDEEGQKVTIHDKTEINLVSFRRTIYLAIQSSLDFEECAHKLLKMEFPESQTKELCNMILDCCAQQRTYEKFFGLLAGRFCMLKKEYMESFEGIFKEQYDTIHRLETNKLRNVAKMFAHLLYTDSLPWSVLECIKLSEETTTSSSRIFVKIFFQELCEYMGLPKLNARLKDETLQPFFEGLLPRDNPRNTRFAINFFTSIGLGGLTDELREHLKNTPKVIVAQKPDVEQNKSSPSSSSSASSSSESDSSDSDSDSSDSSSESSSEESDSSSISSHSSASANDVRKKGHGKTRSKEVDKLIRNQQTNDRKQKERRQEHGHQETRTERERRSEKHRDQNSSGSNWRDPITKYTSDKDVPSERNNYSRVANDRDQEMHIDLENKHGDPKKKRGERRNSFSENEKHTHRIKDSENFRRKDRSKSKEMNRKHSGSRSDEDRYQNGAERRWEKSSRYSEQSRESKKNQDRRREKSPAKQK
UniProt P25774, whole entry, looked up: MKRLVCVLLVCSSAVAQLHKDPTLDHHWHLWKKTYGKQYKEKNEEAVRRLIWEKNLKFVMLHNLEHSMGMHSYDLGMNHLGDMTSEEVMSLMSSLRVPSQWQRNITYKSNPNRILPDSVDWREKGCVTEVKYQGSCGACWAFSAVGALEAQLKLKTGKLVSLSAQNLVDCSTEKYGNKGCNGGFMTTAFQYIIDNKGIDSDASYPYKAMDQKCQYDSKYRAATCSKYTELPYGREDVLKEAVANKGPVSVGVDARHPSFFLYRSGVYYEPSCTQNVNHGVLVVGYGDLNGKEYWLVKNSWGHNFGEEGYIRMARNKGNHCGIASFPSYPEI
UniProt Q92564: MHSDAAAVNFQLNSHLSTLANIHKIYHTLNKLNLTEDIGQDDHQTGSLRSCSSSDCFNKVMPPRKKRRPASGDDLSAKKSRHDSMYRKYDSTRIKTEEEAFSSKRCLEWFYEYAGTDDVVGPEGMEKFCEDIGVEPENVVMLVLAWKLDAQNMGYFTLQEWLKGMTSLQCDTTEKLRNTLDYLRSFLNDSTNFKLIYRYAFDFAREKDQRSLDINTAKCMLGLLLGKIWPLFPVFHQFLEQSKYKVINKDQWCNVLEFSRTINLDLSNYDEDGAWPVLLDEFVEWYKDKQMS
UniProt Q9BTE7: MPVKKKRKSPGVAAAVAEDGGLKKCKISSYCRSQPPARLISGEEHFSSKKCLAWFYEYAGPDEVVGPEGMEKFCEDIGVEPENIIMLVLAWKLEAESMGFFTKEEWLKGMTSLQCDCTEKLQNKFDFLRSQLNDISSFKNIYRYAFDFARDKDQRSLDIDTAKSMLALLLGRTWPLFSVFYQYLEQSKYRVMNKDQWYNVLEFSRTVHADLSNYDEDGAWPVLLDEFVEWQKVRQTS
UniProt Q9Y5B0: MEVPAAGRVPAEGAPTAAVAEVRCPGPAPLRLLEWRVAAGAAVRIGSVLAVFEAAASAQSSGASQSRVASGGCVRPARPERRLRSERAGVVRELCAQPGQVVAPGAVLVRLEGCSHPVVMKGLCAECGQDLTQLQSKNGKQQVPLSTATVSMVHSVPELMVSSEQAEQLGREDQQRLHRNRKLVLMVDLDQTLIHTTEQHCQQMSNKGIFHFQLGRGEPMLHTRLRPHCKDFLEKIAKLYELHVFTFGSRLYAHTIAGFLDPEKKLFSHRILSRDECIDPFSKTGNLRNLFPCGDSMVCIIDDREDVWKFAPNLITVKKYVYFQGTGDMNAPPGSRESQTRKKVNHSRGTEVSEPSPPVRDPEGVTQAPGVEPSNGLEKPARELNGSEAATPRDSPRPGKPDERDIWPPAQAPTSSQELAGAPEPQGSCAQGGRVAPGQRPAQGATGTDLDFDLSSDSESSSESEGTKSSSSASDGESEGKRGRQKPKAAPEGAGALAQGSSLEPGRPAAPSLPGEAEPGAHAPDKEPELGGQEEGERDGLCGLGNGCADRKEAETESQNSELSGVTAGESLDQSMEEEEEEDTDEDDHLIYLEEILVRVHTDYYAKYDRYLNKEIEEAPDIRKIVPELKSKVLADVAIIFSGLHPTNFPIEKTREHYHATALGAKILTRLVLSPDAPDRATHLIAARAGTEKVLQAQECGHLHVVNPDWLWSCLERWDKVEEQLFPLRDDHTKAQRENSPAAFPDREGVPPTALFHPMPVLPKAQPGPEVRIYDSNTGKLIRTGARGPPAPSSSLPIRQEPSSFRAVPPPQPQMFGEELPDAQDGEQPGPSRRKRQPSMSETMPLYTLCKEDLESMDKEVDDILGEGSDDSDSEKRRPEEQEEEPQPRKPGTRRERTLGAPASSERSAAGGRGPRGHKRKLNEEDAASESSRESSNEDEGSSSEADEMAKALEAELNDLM
UniProt Q8WYA6: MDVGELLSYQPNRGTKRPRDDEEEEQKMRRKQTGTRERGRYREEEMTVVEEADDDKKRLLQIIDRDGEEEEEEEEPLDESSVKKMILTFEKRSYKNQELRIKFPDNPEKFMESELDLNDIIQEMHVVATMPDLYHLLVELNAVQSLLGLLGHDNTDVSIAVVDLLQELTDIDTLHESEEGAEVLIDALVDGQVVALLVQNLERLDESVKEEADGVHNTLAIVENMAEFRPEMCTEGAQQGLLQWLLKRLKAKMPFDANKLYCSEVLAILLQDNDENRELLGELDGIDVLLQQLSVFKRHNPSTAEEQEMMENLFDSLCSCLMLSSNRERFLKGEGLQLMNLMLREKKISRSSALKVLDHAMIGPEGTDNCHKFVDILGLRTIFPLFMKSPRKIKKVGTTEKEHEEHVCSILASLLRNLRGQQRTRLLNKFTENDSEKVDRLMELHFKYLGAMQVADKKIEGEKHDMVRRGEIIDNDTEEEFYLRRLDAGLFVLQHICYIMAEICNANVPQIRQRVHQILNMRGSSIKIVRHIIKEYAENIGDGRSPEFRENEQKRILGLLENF
UniProt Q9NSA3: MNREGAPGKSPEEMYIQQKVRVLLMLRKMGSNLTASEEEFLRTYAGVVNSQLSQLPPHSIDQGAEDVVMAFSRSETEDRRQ
UniProt O95196: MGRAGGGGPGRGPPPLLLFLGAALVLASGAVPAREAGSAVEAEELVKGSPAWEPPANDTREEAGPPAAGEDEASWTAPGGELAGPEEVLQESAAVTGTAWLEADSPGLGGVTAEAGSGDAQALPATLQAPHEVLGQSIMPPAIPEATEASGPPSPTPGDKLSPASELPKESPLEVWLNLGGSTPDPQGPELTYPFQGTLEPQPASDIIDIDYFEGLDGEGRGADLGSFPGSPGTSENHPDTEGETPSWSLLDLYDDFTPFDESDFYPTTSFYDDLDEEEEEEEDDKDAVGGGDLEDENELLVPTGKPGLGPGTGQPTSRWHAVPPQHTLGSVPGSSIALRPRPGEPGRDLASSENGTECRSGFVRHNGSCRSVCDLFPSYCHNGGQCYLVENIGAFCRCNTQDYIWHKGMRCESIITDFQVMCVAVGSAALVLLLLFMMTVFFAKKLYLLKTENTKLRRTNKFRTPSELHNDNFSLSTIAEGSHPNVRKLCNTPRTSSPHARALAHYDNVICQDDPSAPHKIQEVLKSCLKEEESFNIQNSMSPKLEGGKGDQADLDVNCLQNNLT
UniProt Q15438: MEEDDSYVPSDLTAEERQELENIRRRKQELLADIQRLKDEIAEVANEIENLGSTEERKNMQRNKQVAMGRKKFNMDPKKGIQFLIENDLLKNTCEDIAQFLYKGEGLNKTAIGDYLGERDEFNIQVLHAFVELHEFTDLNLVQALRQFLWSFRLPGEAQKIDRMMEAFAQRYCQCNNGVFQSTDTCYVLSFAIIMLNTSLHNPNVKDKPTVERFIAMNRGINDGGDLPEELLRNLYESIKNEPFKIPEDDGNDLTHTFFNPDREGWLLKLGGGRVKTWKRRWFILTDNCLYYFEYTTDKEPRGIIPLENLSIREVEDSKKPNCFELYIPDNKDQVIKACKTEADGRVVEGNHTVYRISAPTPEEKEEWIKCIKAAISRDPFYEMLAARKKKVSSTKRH
UniProt Q7LFL8: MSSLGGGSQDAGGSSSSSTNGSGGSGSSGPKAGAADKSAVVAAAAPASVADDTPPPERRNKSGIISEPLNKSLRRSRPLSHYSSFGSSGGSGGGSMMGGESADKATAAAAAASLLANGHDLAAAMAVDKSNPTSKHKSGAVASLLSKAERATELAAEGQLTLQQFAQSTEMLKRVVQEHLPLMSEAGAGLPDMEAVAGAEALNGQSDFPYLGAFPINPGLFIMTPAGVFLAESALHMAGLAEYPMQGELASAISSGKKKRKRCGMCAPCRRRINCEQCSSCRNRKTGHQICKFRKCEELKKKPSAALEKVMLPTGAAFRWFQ
UniProt Q6VVX0: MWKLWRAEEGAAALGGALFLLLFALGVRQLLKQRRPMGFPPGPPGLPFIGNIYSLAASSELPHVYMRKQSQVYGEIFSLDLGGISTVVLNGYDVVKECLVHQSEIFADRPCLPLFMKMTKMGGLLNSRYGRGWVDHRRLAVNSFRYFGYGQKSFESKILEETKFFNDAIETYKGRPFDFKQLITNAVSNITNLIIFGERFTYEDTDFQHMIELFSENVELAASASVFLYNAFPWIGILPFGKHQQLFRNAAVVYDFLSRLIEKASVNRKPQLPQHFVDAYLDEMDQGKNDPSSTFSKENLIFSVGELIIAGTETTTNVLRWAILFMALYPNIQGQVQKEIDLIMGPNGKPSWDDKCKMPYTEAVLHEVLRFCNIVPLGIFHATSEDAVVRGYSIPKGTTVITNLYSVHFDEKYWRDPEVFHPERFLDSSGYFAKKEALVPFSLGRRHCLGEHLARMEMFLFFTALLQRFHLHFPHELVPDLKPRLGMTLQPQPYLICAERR

Compound in the next assay: Cc1cn(-c2cc(NC(=O)c3ccc(C)c(Nc4nccc(-c5cccnc5)n4)c3)cc(C(F)(F)F)c2)cn1 [nilotinib]
The method in brief: as §1

Compound in assay [2]: Cc1nc(Nc2n[nH]c3c2CN(C(=O)N[C@H](CN(C)C)c2ccccc2)C3(C)C)c2sccc2n1
The gist of the method: as §1

Compound in a further assay: Cc1nc(Nc2ncc(C(=O)Nc3c(C)cccc3Cl)s2)cc(N2CCN(CCO)CC2)n1 [dasatinib]
The gist of the method:
as §1

Compound in assay [3]: Cc1ncc(-c2ccnc(Nc3ccc(S(C)(=O)=O)cc3)n2)n1C(C)C
The method in brief:
as §1

Compound in assay [4]: Cn1cc(-c2ccc3nnc(C(F)(F)c4ccc5ncccc5c4)n3n2)cn1
The method in brief: as §1

Compound in a further assay: FC(F)(F)c1ccc(/C=C/c2nc(COc3ccc(CCCCn4ccnn4)cc3)co2)cc1 [mubritinib]
The method in brief:
as §1

Compound in assay [5]: Cn1cc(-c2ccc3c(c2)CCN3C(=O)Cc2cccc(C(F)(F)F)c2)c2c(N)ncnc21
The gist of the method:
as §1

Compound in a further assay: Cn1cncc1[C@@](N)(c1ccc(Cl)cc1)c1ccc2c(c1)c(-c1cccc(Cl)c1)cc(=O)n2C [tipifarnib]
The method in brief: as §1

Compound in another assay: Cc1ccc(NC(=O)c2ccc(CN3CC[C@H](N(C)C)C3)c(C(F)(F)F)c2)cc1Nc1nccc(-c2cncnc2)n1 [bafetinib]
The gist of the method:
as §1

The other results are listed elsewhere or left out.

Data on 37 targets can be found in the supplement of paper PMC10849652.

For DCAF4 (UniProt Q8WV16), the log2 fold change in assay [1] is active: -0.423; with nilotinib, inactive: -0.204; in assay [2], inactive: -0.007; in the assay with dasatinib, inactive: 0.11; in [3] it was inactive: -0.093; in [4], inactive: 0.079. In the assay with mubritinib, the log2 fold change was inactive: 0.094.
On to CTDNEP1 (UniProt O95476), for which the log2 fold change was inactive: -0.005 in assay [1], inactive: -0.171 with dasatinib and inactive: -0.145 in assay [5].
On to CYBRD1 (UniProt Q53TN4), for which the log2 fold change is inactive: -0.11 in assay [1]; inactive: 0.022 with dasatinib; inactive: -0.073 in assay [5]; inactive: -0.597 in [4]; inactive: 0.18 with tipifarnib; inactive: 0.091 with mubritinib.
Take CYP4V2 (UniProt Q6ZWL3): the log2 fold change in [1] was inactive: -0.022; with dasatinib it was inactive: -0.018; in assay [5], inactive: 0.062; in [4], inactive: 0.058.
CTR9 (UniProt Q6PD62): the log2 fold change is inactive: -0.104 in assay [1], inactive: 0.104 with dasatinib, inactive: -0.055 in assay [4] and inactive: 0 in the assay with tipifarnib.
For CTIF (UniProt O43310), the results for the log2 fold change in assay [5] and in assay [4] were inactive: 0.063 and inactive: 0.161, respectively.
For the target DAPK1 isoform 3 (UniProt P53355), the log2 fold change in the assay with bafetinib was inactive: -0.254; in [4], inactive: 0.136; in the assay with tipifarnib, inactive: 0.031; with mubritinib, inactive: -0.002.
Consider CXCL14 (UniProt O95715), for which the log2 fold change with bafetinib was inactive: -0.145; with nilotinib it was inactive: -0.128; in assay [2] it was inactive: -0.104; in [3], inactive: 0.042; in the assay with mubritinib, inactive: -0.098.
On to DCBLD2 isoform 2 (UniProt Q96PD2), for which, in the assay with dasatinib, the log2 fold change was inactive: -0.084.
Regarding CYREN (UniProt Q9BWK5), the log2 fold change was inactive: -0.016 in assay [1]; inactive: -0.102 with nilotinib; inactive: 0.029 in [2]; inactive: 0.045 in [3]; inactive: -0.145 in [4]; inactive: 0.16 with mubritinib.
For the target CTDSPL2 (UniProt Q05D32), the log2 fold change in assay [1] is inactive: -0.077; with nilotinib it was inactive: -0.014; in assay [2] it was inactive: -0.098; with dasatinib, inactive: 0.072; in assay [3] it was inactive: 0.002; in assay [5] it was inactive: 0.297.
With DAPK2 isoform 2 (UniProt Q9UIK4), the log2 fold change in the assay with mubritinib is inactive: -0.23.
Consider CTNS isoform 2 (UniProt O60931), for which the results for the log2 fold change (in [5]; with mubritinib) were inactive: 0.052 and inactive: -0.133, respectively.
Consider CWC22 (UniProt Q9HCG8), for which, in the assay with tipifarnib, the log2 fold change was inactive: -0.157.
In the case of CST1 (UniProt P01037), the log2 fold change with bafetinib is inactive: -0.112; with nilotinib, inactive: 0; in [2], inactive: -0.027; in the assay with dasatinib it was inactive: -0.236; in assay [3], inactive: 0.163; in the assay with mubritinib, inactive: 0.425.
In the case of CST6 (UniProt Q15828), the log2 fold change was inactive: -0.119 with nilotinib, inactive: 0.219 in assay [2], inactive: 0.295 in assay [3] and inactive: -0.118 with mubritinib.
For DBNL (UniProt Q9UJU6), in assay [5], the log2 fold change was inactive: 0.308.
With DCAF12 (UniProt Q5T6F0), the values for the log2 fold change (in assay [1]; in the assay with mubritinib) were inactive: 0.124 and inactive: 0.087, respectively.
Consider CTSS (UniProt P25774), for which the log2 fold change in assay [1] was inactive: -0.063; with dasatinib, inactive: 0.052; in assay [5] it was inactive: -0.07; in assay [4] it was inactive: -0.028.
Consider DCUN1D4 isoform 3 (UniProt Q92564), for which the log2 fold change with dasatinib was inactive: 0.035; in [5], inactive: 0.048; with mubritinib, inactive: -0.015.
Turning to DCUN1D5 (UniProt Q9BTE7), the log2 fold change in assay [1] was inactive: -0.073; in assay [4] it was inactive: -0.069; with mubritinib it was inactive: 0.019.
In the case of CXXC1 isoform 2 (UniProt Q9P0U4), the log2 fold change in assay [1] was inactive: -0.024; with dasatinib it was inactive: 0.131; in assay [5], inactive: -0.004; with tipifarnib, inactive: -0.058.
On to CTDP1 (UniProt Q9Y5B0), for which the log2 fold change was inactive: 0.008 with nilotinib; inactive: 0.06 in assay [2]; inactive: -0.003 with dasatinib; inactive: -0.058 in [3]; inactive: -0.145 in assay [5]; inactive: 0.057 with tipifarnib. Moreover, in the assay with mubritinib, the log2 fold change is inactive: 0.07.
As for CUL7 isoform 2 (UniProt Q14999), the log2 fold change in assay [1] was inactive: -0.238; with nilotinib, inactive: -0.305; in assay [2] it was inactive: 0.079; with dasatinib, inactive: -0.488; in assay [3], inactive: 0.12; in assay [4] it was inactive: -0.03. Moreover, in the assay with tipifarnib, the log2 fold change is inactive: 0.041.
Take DAAM1 (UniProt Q9Y4D1): the log2 fold change is inactive: 0.03 with dasatinib and inactive: -0.276 in assay [5].
Consider CTNNBL1 (UniProt Q8WYA6), for which the log2 fold change is inactive: -0.12 with bafetinib and inactive: 0.022 with tipifarnib.
Turning to CSRP2 (UniProt Q16527), the log2 fold change is inactive: -0.083 in assay [5] and inactive: -0.171 in [4].
In the case of CTSF (UniProt Q9UBX1), the log2 fold change in assay [1] was inactive: -0.17.
With CTNNBIP1 (UniProt Q9NSA3), the log2 fold change in [1] was inactive: -0.045; with dasatinib it was inactive: 0.067; in assay [5], inactive: -0.002; with mubritinib, inactive: 0.055.
Consider CYTH2 (UniProt Q99418), for which the log2 fold change was inactive: -0.122 with bafetinib, inactive: -0.049 with dasatinib, inactive: 0.081 with tipifarnib and inactive: 0.01 with mubritinib.
For the target CSPG5 (UniProt O95196), in the assay with tipifarnib, the log2 fold change is inactive: -0.004.
Regarding DCP2 (UniProt Q8IU60), the log2 fold change with dasatinib was inactive: 0.02; in [5], inactive: -0.021; in assay [4], inactive: -0.033; with tipifarnib, inactive: -0.112.
For CYTH1 (UniProt Q15438), the log2 fold change was inactive: 0.124 in the assay with dasatinib, inactive: 0.067 with tipifarnib and inactive: 0.101 in the assay with mubritinib.
For CXXC5 (UniProt Q7LFL8), the log2 fold change with dasatinib was inactive: 0.097; in [4], inactive: -0.155.
For the target DCBLD1 (UniProt Q8N8Z6), the results for the log2 fold change (in the assay with dasatinib; in assay [5]; with tipifarnib) were inactive: 0.106, inactive: 0.163 and inactive: 0.21, respectively.
Take CYP2R1 (UniProt Q6VVX0): the log2 fold change is inactive: 0.049 with bafetinib; inactive: -0.069 in the assay with nilotinib; inactive: -0.022 in assay [2]; inactive: 0.011 in [3]; inactive: 0.191 in assay [5].
As to CWF19L2 (UniProt Q2TBE0), the log2 fold change in assay [1] is inactive: -0.285; with dasatinib, inactive: 0.118; in [5] it was inactive: -0.102; in [4], inactive: 0.001; with tipifarnib, inactive: 0.083.
